Results: US20100152284A1, “PREVENTION AND REVERSAL OF CHEMOTHERAPY-INDUCED PERIPHERAL NEUROPATHY” (NOVOGEN RESEARCH PTY LTD, priority 2006, published 2010)
For at least one compound, name, drawing or mass did not settle the structure.

Legend:
[1] = tested on: differentiated PC12 cells; experiment: Neurite length (longest neurite per neuron) in differentiated PC12 cells; type: cell-based; conditions: for neurite length compared to cisplatin alone: p<0.001
Procedure: Further to the above described analysis of cells containing neurites, the longest neurite per neuron present in each frame was measured using Image J open source software (NIH, USA).

[2] = tested on: differentiated PC12 cells; experiment: Recovery from cisplatin-induced neurite toxicity (24 h drug, 24 h wash-out, 24 h phenoxodiol); type: cell-based; conditions: for effect on neurite outgrowth: recovery protocol
Procedure: To determine whether phenoxodiol could have an effect on recovery from cisplatin- or paclitaxel-induced neurite toxicity by exacerbation, reversal, retardation or facilitation of repair, recovery experiments were performed. When conducting the recovery experiments, the concentrations of phenoxodiol tested were decreased by 1 log to 10 nM 100 nM and 1 μM.

[3] = tested on: differentiated PC12 cells; experiment: Neurite toxicity: percentage of differentiated PC12 cells with neurites after 24 h incubation; conditions: for effect on percent neurites: 24 h
Procedure: PC-12 cells were maintained in Dulbecco's Modified Eagle Media (DMEM; Gibco) with 10% calf serum (Turbo calf serum, Invitrogen), 5% horse serum (JRH Biosciences, Victoria, Australia) and 1% penicillin/streptomycin (Invitrogen) at 37° C., in a 5% CO2 atmosphere. Differentiation into neurons was achieved by seeding cells at a density of 15,000 cells/well in 24-well plates (Falcon Becton Dickinson), on 13 mm glass cover slips (Menzel Glaser, Germany) coated with laminin (Invitrogen) and poly-DL-ornithine (Sigma) in DMEM plus 1% horse serum and 50 ng/mL of nerve growth factor (NGF) (Sigma). The cells were incubated for 72 hours under differentiation conditions, before use in the neurite outgrowth assays below.
Working concentrations were diluted in PC12 cell differentiation medium as above. Treatments consisted of a 24 hour incubation in differentiation media with various concentrations of either agent.
Outgrowing projections were considered neurites if they were greater than a cell body width (10 μm), essentially as previously described. Images of all neurons in thirty randomly selected fields were digitally captured using an Olympus BX60 fluorescence microscope with a UPIanFI 40×/0.75 objective lens and a Zeiss Axiocam HRc digital camera and Zeiss Axiovision 3.1 software. Neurons in all fields were counted per condition and the number of cells with neurites expressed as a percentage of total cells present and error expressed as the standard error of the mean (sem). Each experiment was conducted in triplicate and the results pooled. Statistical significance of data was analysed using ANOVA followed by the Bonferroni post-hoc test.
Neurite toxicity was determined as the percent of cells comprising neurite outgrowths as described in Example 1.

[4] = tested on: differentiated PC12 cells; experiment: βIII-tubulin immunocytochemistry of treated differentiated PC12 cells; type: cell-based; conditions: for neurites in βIII-tubulin stained cells: 24 hrs
Text: Further, immunocytochemistry was used to visualise the neurite toxicity effects described above. To do so, following the treatment period, cells were washed with PBS, fixed with 4% paraformaldehyde and permeabilised with ice-cold methanol. Neurons were immunostained for the neuronal marker βIII-tubulin (Promega; Madison, Wisconson, USA) and a Cy3-conjugated anti-mouse antibody (Invitrogen) was used to visualise the staining.

[5] = phenoxodiol 100 nM + paclitaxel

## Oc1ccc(C2=Cc3ccc(O)cc3OC2)cc1 [phenoxodiol, 2H-1-benzopyran-7-0,1,3-[4-hydroxyphenyl]]
[1]; phenoxodiol 100 nM + cisplatin
  neurite length compared to cisplatin alone: increased neurite length
[1]; [5]
  neurite length, amelioration of paclitaxel inhibition: slight increase in neurite length
[1]; phenoxodiol 1 μM + cisplatin
  neurite length compared to cisplatin alone: increased neurite length
[1]; phenoxodiol 1 μM + paclitaxel
  neurite length, amelioration of paclitaxel inhibition: slight increase in neurite length
[1]; phenoxodiol alone 100 nM
  neurite length: no effect on neurite length
[1]; phenoxodiol alone 1 μM
  neurite length: no effect on neurite length
[2]; phenoxodiol added following 20 μg/ml Cisplatin treatment
  recovery of neurite outgrowth: slight effect on recovery of neurite outgrowth
[2]; phenoxodiol alone 10 nM
  effect on neurite outgrowth: no effect on neurite outgrowth
[2]; phenoxodiol alone 100 nM
  effect on neurite outgrowth: no effect on neurite outgrowth
[2]; phenoxodiol alone 1 μM
  effect on neurite outgrowth: no effect on neurite outgrowth
[3]; phenoxodiol 100 nM + cisplatin 20 μg/ml, p<0.01
  blocking of cisplatin neurite toxicity: blocked
[3]; [5]
  effect on paclitaxel neurite toxicity (cells with neurites): an increase in cells with neurites, although this was not determined to be statistically significant
[3]; phenoxodiol 1 μM + cisplatin 1 μg/ml, t-test P<0.02
  protection against cisplatin induced neurite toxicity: protection of this cisplatin induced neurite toxicity was significant
[3]; phenoxodiol 1 μM + cisplatin 20 μg/ml, p<0.001
  blocking of cisplatin neurite toxicity: blocked
[3]; phenoxodiol alone 100 nM
  effect on percent neurites: no effect on percent neurites
[3]; phenoxodiol alone 1 μM
  effect on percent neurites: no effect on percent neurites
[4]; phenoxodiol 100 nM
  neurites in βIII-tubulin stained cells: large percentage of cells with long neurites
[4]; phenoxodiol 1 μm + cisplatin 20 μg/ml
  blocking of cisplatin effect on cells bearing neurites (βIII-tubulin staining): blocked
[4]; phenoxodiol 1 μm
  neurites in βIII-tubulin stained cells: large percentage of cells with long neurites
